From patent EP2662386A1
No constants are given. Whether binding was seen depends on the method and setting. For some of these results: Binding seen in cells or lysates may run through a third protein. Some results given as binding are weak or reduced against the parent protein; the word gives no strength. For some of these results: Tags and fused reporters may be left off the sequences shown.

Columns and labels:
[1] = biological target: T1, FGF7 expressed in HEK293T cells (human) (UniProt P21781); assay: co-immunoprecipitation (legend of Figure 3)
T1 sequence: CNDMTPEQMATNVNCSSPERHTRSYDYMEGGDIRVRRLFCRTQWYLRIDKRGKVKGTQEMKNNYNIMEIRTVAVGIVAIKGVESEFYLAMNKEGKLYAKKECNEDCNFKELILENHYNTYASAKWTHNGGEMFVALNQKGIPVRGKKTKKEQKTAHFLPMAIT

[2] = biological target: T2, GST-FGF7 (bacterially expressed and purified) (human) (UniProt P21781); assay: in vitro interaction assay (legend of Figure 2)
T2 sequence: T1 sequence

[3] = biological target: T1, FGF7 expressed in HEK293T cells (human); assay: co-immunoprecipitation with an FGF7-specific antibody from HEK293T cells
[4] = biological target: T2, GST-FGF7 (bacterially expressed and purified) (human); assay: pull-down of PLAC1 from HEK293T lysate on immobilized GST-FGF7, immunoblot

binding [1]: binds
binding [2]: binds
binding [3]: binds
binding [4]: binds
B1: human PLAC1 (protein)
chain: QSPMTVLCSIDWFMVTVHPFMLNNDVCVHFHELHLGLGCPPNHVQPHAYQFTYRVTECGIRAKAVSQDMVIYSTEIHYSSKGTPSKFVIPVSCAAPQKSPWLTKPCSMRVASKSRATAQKDEKCYEVFSLSQSSQRPNCDCPPCVFSEEEHTQVPCHQAGAQEAQPLQPSHFLDISEDWSLHTDDMIGSM
